Values from PubChem BioAssay AID504744 (Drosophila RNAi Screening Center, 2011).
The deposit covers about 23,000 reagents; shown is a random part of those with a known target gene and a result. Over the whole deposit, 98 (0.43%) got an active call. 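Only hit calls are given; the phospho-dAkt signals, z-scores and hit direction were not deposited.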 Names joined by + are all predicted targets of the reagent.

Assay: 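Uncover factors, including feedback loops, that control dAkt activation in fly cells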 (primary screen)
Cell system: Drosophila Kc167 cells
Knock-down reagent: long dsRNA against Drosophila genes, 250 ng dsRNA per well of a 384-well plate
Time to read-out: 3 days of knock-down, then overnight serum-free starvation before stimulation
Treatment: bovine insulin at 387 nM for 10 minutes after 12 h without serum
Measurement: 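In-cell antibody fluorescence for phospho-dAkt in each well over DNA-dye signal, with log2 residuals expressed as z-scores adjusted for cell count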
Rule for the call: 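Under insulin, a gene counts as a hit if the average z-score of two replicates lies above 2.5 or below -2.5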

Gene	DRSC id	outcome
Plzf	DRSC02994	inactive
CG14570	DRSC11731	inactive
Efr	DRSC18322	inactive
cac	DRSC19743	inactive
cac	DRSC20354	inactive
CG17475	DRSC15238	inactive
CG14891	DRSC15013	inactive
CG8927	DRSC16458	inactive
CG34434	DRSC18134	inactive
CG3984	DRSC15530	inactive
rgn	DRSC11609	inactive
crok	DRSC02593	inactive
crok	DRSC21349	inactive
CG15650	DRSC04241	inactive
CG33159	DRSC08199	inactive
CG31371	DRSC15079	inactive
ppk17	DRSC02252	inactive
Cpr72Ea	DRSC10451	inactive
CG13488	DRSC04133	inactive
Cyp9f2	DRSC16635	inactive
CG5013	DRSC15695	inactive
MAPk-Ak2	DRSC18678	inactive
CG4230	DRSC02740	inactive
Sou	DRSC04356	inactive
Tsp2A	DRSC18584	inactive
CG13377	DRSC18622	inactive
Mlp60A	DRSC04623	inactive
Mlp60A	DRSC22233	inactive
Mlp60A	DRSC22481	inactive
Neurl4	DRSC10638	inactive
CG14662	DRSC12248	inactive
CG15927	DRSC19742	inactive
CG13062	DRSC09945	inactive
CG31441	DRSC15723	inactive
CG33490	DRSC10587	inactive
Srp54k	DRSC11289	inactive
Cp16	DRSC11119	inactive
TwdlD	DRSC14738	inactive
CG3735	DRSC04411	inactive
hth	DRSC16967	inactive
LanB2	DRSC11208	inactive
CG33098	DRSC22903	inactive
CG32021 (retired record)	DRSC17206	inactive
Ptr	DRSC04852	inactive
Ptr	DRSC21517	inactive
CG7011 + Prp31	DRSC10760	inactive
CG13010	DRSC19529	inactive
CG13678	DRSC10036	inactive
RpS3A	DRSC17168	inactive
CG14613	DRSC20625	inactive
CG7252	DRSC10789	inactive
CG7252	DRSC21492	inactive
put	DRSC17039	inactive
Gr22c	DRSC22081	inactive
ETHR	DRSC15915	inactive
Smox	DRSC18716	inactive
san	DRSC07695	inactive
AsnRS	DRSC01990	inactive
CtIP	DRSC11785	inactive
CG32302	DRSC08340	inactive
CG11586	DRSC08203	inactive
CG13083	DRSC02187	inactive
ems	DRSC16941	inactive
Ccp84Ag	DRSC12592	inactive
Ccp84Ag	DRSC22085	inactive
Pp2C1	DRSC18699	inactive
PpD6	DRSC00774	inactive
CG9257	DRSC03173	inactive
Nek2	DRSC18124	inactive
CG14739	DRSC14959	inactive
CG9313	DRSC04540	inactive
CG5866	DRSC15900	inactive
CG33223	DRSC17572	inactive
Octbeta1R	DRSC16134	inactive
sm	DRSC05795	inactive
sm	DRSC07686	inactive
CG11905	DRSC09863	inactive
Spn42De	DRSC05011	inactive
CG6843	DRSC10725	inactive
WRNexo	DRSC16278	inactive
GstD2	DRSC16684	inactive
CG12374	DRSC06143	inactive
be	DRSC19607	inactive
be	DRSC19944	inactive
be	DRSC19945	inactive
Usp12-46	DRSC16175	inactive
TpnC73F	DRSC11307	inactive
CG11437	DRSC11659	inactive
PICK1	DRSC02936	inactive
Rad1 + Sws1	DRSC00778	inactive
CG12682	DRSC17873	inactive
Bcs1	DRSC02789	inactive
CG3906	DRSC04431	inactive
MFS14	DRSC06524	inactive
mRpS11	DRSC15732	inactive
sip1	DRSC03609	inactive
sip1	DRSC22648	inactive
CG14341	DRSC00371	inactive
CG8209	DRSC10970	inactive
ND-B16.6	DRSC18306	inactive
ND-B16.6	DRSC22600	inactive
CG32727	DRSC17519	inactive
Trs23	DRSC03190	inactive
CG12118	DRSC17813	inactive
CG7423	DRSC20044	inactive
CG31806	DRSC02787	inactive
Cpsf6	DRSC10781	inactive
Pten	DRSC03402	inactive
CG31668	DRSC22584	inactive
jim	DRSC11889	inactive
lectin-37Db	DRSC03279	inactive
CG1792	DRSC15290	inactive
witty	DRSC02378	inactive
witty	DRSC21650	inactive
CG4041	DRSC18339	inactive
CG6497	DRSC10654	inactive
CG6497	DRSC21469	inactive
E(z)	DRSC11147	inactive
msl-3	DRSC11371	inactive
CG11902	DRSC14434	inactive
Jon99Cii	DRSC16858	inactive
Jon99Cii	DRSC22574	inactive
CG5715	DRSC15860	inactive
CR12628 + Mgstl	DRSC03702	inactive
CR12628 + Mgstl	DRSC20568	inactive
CG11839	DRSC14398	inactive
ndl	DRSC11374	inactive
trx	DRSC17089	inactive
Doc1	DRSC11146	inactive
Hug	DRSC16969	inactive
fand	DRSC06967	inactive
Gr28a	DRSC02290	inactive
Larp4B	DRSC08192	inactive
Qtzl	DRSC01221	inactive
insc	DRSC04695	inactive
Hacd2	DRSC03181	inactive
CG13054	DRSC09935	inactive
Dyro	DRSC10598	inactive
kune	DRSC04860	inactive
CG17855	DRSC02638	inactive
Rcd-1r + CG13102	DRSC03266	inactive
CG14607	DRSC12551	inactive
Grip91	DRSC20249	inactive
CG17633	DRSC02631	inactive
xmas	DRSC21306	inactive
xmas	DRSC22178	inactive
Rpn6	DRSC07541	inactive
RpLP2	DRSC07539	inactive
CG9951	DRSC11105	inactive
msopa	DRSC11895	inactive
CG11951	DRSC14442	inactive
CG9926	DRSC16582	inactive
RhoGAP100F	DRSC15409	inactive
CG13728	DRSC10056	inactive
Argl + CG9515	DRSC03243	inactive
Argl + CG9515	DRSC03245	inactive
CG31141	DRSC13646	inactive
CG15498	DRSC15040	inactive
CG16989	DRSC18535	inactive
step	DRSC03694	inactive
step	DRSC03699	inactive
fidipidine	DRSC07618	inactive
Polr1H	DRSC14594	inactive
Diap1	DRSC11404	inactive
mim	DRSC05013	inactive
Tmf	DRSC18368	inactive
CG4829	DRSC19920	inactive
CG4887	DRSC00670	inactive
CG4887	DRSC21563	inactive
CG5707	DRSC08573	inactive
lncRNA:CR42646	DRSC04759	inactive
TrxT	DRSC22182	inactive
chrb	DRSC11335	inactive
grn	DRSC12666	inactive
grn	DRSC16961	inactive
CG9550	DRSC03262	inactive
Dhps	DRSC10948	inactive
a5	DRSC00798	inactive
CG3342	DRSC18304	inactive
Dok	DRSC18204	inactive
pHCl-1	DRSC09401	inactive
pHCl-1	DRSC09991	inactive
pHCl-1	DRSC10589	inactive
CG31988	DRSC22491	inactive
Gr58b	DRSC04140	inactive
CG6333	DRSC10626	inactive
Cyp9f3	DRSC16636	inactive
JYalpha	DRSC17224	inactive
CG12684	DRSC17875	inactive
CG13436	DRSC06396	inactive
CG30325	DRSC05685	inactive
CG15459	DRSC20530	inactive
CG15459	DRSC21383	inactive
Rrp4	DRSC04434	inactive
CG14147	DRSC10149	inactive
CG14636	DRSC12223	inactive
CG11975	DRSC14452	inactive
fzy	DRSC03534	inactive
CG42709	DRSC10277	inactive
EMC7	DRSC07162	inactive

Records listed so far whose target name starts with S or s:
Gene	DRSC id	outcome
Sou	DRSC04356	inactive
Srp54k	DRSC11289	inactive
Smox	DRSC18716	inactive
san	DRSC07695	inactive
sm	DRSC05795	inactive
sm	DRSC07686	inactive
Spn42De	DRSC05011	inactive
sip1	DRSC03609	inactive
sip1	DRSC22648	inactive
step	DRSC03694	inactive
step	DRSC03699	inactive
